The exact form of at least one protein or probe is not confirmed. For some of these results: No signal at the amounts used counts as a negative. For some of these results: A weaker result is weaker than the reference pair of the same experiment. For some of these results: At least one verdict rests on a figure or table, not on a statement of the authors.
Experiments:
Experiment in all cases: EMSA
[1] = tested on: N.CglI (Corynebacterium glutamicum ATCC 13032); settings: no metal, 0.1 mM EDTA, EMSA: 1 nM 33P-DNA, 1-500 nM protein monomer, 40 mM Tris-acetate pH 8.3 (25°C), 0.1 mM EDTA (NgoAVII: 5 mM Ca-acetate instead), 0.1 mg/ml BSA, 10% glycerol, 15 min, recombinant protein, label: 33P
[2] = tested on: R.CglI (Corynebacterium glutamicum ATCC 13032); settings: no metal, 0.1 mM EDTA, little or no binding; EMSA: 1 nM 33P-DNA, 1-500 nM protein monomer, 40 mM Tris-acetate pH 8.3 (25°C), 0.1 mM EDTA (NgoAVII: 5 mM Ca-acetate instead), 0.1 mg/ml BSA, 10% glycerol, 15 min; recombinant protein; label: 33P
[3] = tested on: R.CglI-B3 (Corynebacterium glutamicum ATCC 13032); settings: no metal, 0.1 mM EDTA; EMSA: 1 nM 33P-DNA, 1-500 nM protein monomer, 40 mM Tris-acetate pH 8.3 (25°C), 0.1 mM EDTA (NgoAVII: 5 mM Ca-acetate instead), 0.1 mg/ml BSA, 10% glycerol, 15 min; recombinant protein; label: 33P

TACAATCGATAATACCAGGCGTGCGAGCCCATT (double strand) [33 bp non-cognate duplex]
binding result ([1]; little or no binding): binds more weakly | binding result [2]: binds more weakly

TACAATCGATAATAGCCGCCGTGCGAGCCCATT (double strand) [33 bp cognate duplex]
binding result [1]: no binding | binding result [3]: binds
